Experimental data published in patent US8354274B2, “Synthetic surfaces for culturing cells in chemically defined media” (Geron Corporation, priority 2008, dated 2013).
Some of these results come from one statement about several compounds together. Where no end group is shown, it is not given here.

Test system: HepG2/C3A cells
Assay: Serum-free attachment of HepG2/C3A cells (LDH activity, absorbance at 490 nm)
Type: cell-based
Details: peptide conjugated to SA layer, 24 hours
Procedure: HepG2/C3A cells (ATCC # CRL-10741) were plated at 25,000 cells per well in 100 μl media in triplicate on SAP surfaces, BD BioCoat™ Collagen I and Corning CellBind® treated Topas™ in a 96 well format and cultured at in Eagle's Minimum Essential Medium (ATCC #30-2003) supplemented with 1% penicillin-streptomycin (Invitrogen #15140-155). The culture medium was not supplemented with fetal bovine serum (as recommended by the cell line supplier) nor was the SAP surface exposed to fetal bovine serum. The culture plates were incubated at 37° C., in 5% CO2 and 95% relative humidity for 24 hours. The cell culture plates having the SA surfaces were prepared as described in EXAMPLE 1. Peptides were conjugated according to EXAMPLE 2. […] The line in FIG. 24 indicates 75% performance of cells on Collagen 1.
The attachment of the HepG2/C3A cells was determined using a Cytotoxicity Assay (Promega CytoTox 96® Non-Radioactive Cytotoxicity Assay # G1780) which estimates the number of living cells attached to the culture surfaces. After 24 hours of in culture, the cells were vigorously washed with phosphate buffer, lysed via the introduction of the lysis buffer solution and incubation at 37 C for 1 hour to release lactate dehydrogenase (LDH) enzyme from the viable cells that remain attached to the culture surfaces. The biological activity of the released lactate dehydrogenase enzyme was measured via absorbance at 490 nm using a plate reader (Victor 3 from PerkinElmer).

| Sequence | serum-free attachment of HepG2/C3A cells, of Collagen I |
| --- | --- |
| KGGTWYKIAFQRNRK [SEQ ID NO:16] | ≥ 75% |
| KYGKAFDITYVRLKF [SEQ ID NO:21] | ≥ 75% |
| KYGSETTVKYIFRLHE [SEQ ID NO:19] | ≥ 75% |
